Laboratory results: PubChem BioAssay AID1347075 (National Center for Advancing Translational Sciences (NCATS), 2019)
Hit rate of the full screen: of about 400,000 compounds, about 5,500 (1.4%) were called active. The inconclusive results got no clear call from the source; some entries with a clear call stand among them for comparison. The call rests on the fitted dose curve; in most records, active means well fitted cell-killing curve with a large enough effect; inconclusive means small, poorly fitted or top-dose-only effect, or effect the other way; inactive means flat fitted curve, though single readings scatter. Potencies of inconclusive entries are doubtful fits and often do not repeat.

test: qHTS assay for MDR1-selective chemotherapeutics: Primary screen using the parental adenocarcinoma cell KB-3-1; settings: KB-3-1 viability, CellTiter-Glo ATP luminescence, 72 h; activity change, negative = cytotoxic: at 46.1 µM (top of the series); further: nearly all actives have a fitted effect of over 60% in size
Outline: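 Luminescent ATP read-out (CellTiter-Glo) measures survival of drug-naive KB-3-1 cells after 72 h compound exposure at 37 °C. Titration series was screened from lowest to highest concentration, with DMSO vehicle plates as background controls.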
On the % scale 0 is the no-effect control and ±100 the full control effect; potency means the concentration at half of the fitted maximal effect.

Structure (SMILES) | Potency | activity change, negative = cytotoxic
Cc1ccc(NCC(=O)Nc2cccc(F)c2)cc1S(=O)(=O)N1CCCCCC1 | inconclusive: 16.4 µM [cytotoxic, partial curve] | –
CCOC(=O)c1c(S(=O)(=O)N2CCC(C(=O)Nc3cccc(C)n3)CC2)c(C)n(C)c1C | – | inactive: -1.63%
CCCN(C(=O)c1cc2c(=O)oc3ccccc3c2s1)c1ccccc1C | inconclusive: 18.4 µM [cytotoxic, single point] | –
CCC(C)NC(=O)Cn1c(=O)ccc2cc(S(=O)(=O)N3CCCC3)ccc21 (configuration not stated) | – | inactive: -0.52%
CCCC(=O)Nc1ccc(C(=O)/C=C/c2ccc(SC)cc2)cc1 | inconclusive: 23.1 µM [cytotoxic, single point] | –
Cc1cccc(Oc2ccc(S(=O)(=O)N3CCCCC3)cc2N)c1 | inconclusive: 16.4 µM [cytotoxic, single point] | –
CCOc1cc(CNC(=O)c2ccc3nc(CCc4ccccc4)oc3c2)ccc1OC | – | inactive: 4.13%
O=S(=O)(c1cccs1)N1CCN(CC(O)COc2cc(Cl)ccc2Cl)CC1 (configuration not stated) | inconclusive: 14.6 µM [cytotoxic, partial curve, poor fit] | –
Cc1cccc(-c2oc3ccc(-c4ccc5c(c4)OCO5)cc3c2C#Cc2cncn2C)c1 | inconclusive: 18.4 µM [cytotoxic, single point] | –
Cc1ccc(S(=O)(=O)NC(=O)NC(=O)N(C)S(=O)(=O)c2ccc(C)cc2)cc1 | inconclusive: 4.61 µM [rising, partial curve, poor fit] | –
Cc1ccc(S(=O)(=O)NCCc2csc3nc(-c4ccccc4C)nn23)cc1 | – | inactive: -7.65%
CCc1ccc(-c2cn(-c3nc(C)cc(C)n3)c(=N)o2)cc1 | active: 20.6 µM | –
Cc1ccc2nc(C)c(C(=O)N/N=C/c3cccs3)cc2c1 | inconclusive: 32.6 µM [cytotoxic, single point] | –
Cc1cc(N2CCN(c3ccc(C(F)(F)F)cc3[N+](=O)[O-])CC2)c2ccccc2n1 | inconclusive: 20.6 µM [cytotoxic, single point] | –
Clc1ccc(CSc2nnc(-c3ccccn3)n2Cc2ccco2)c(Cl)c1 | inconclusive: 14.6 µM [cytotoxic, single point] | –
COc1ccc(OCC(=O)NC2CC(C)(C)NC(C)(C)C2)cc1 | inconclusive: 16.4 µM [rising, partial curve, poor fit] | –
Cc1c(O[C@@H]2O[C@H](CO)[C@@H](O)[C@H](O)[C@H]2O)ccc2c1oc(=O)c1ccccc12 | inconclusive: 23.1 µM [cytotoxic, single point] | –
CCOC(=O)c1sc2nc(CC(=O)OC)nc(N3CCN(c4ccccn4)CC3)c2c1C | – | inactive: 0.109%
COc1ccc(-c2nnc(-c3ccc(F)cc3)o2)cc1 | – | inactive: 2.57%
CN(Cc1ccccc1)C(=O)c1[nH]cnc1C(=O)NCc1ccccc1 | – | inactive: 11.8%
C=C(C)CNC(=S)N/N=C/C1=CCC2CC1C2(C)C (configuration not stated) | inconclusive: 23.1 µM [cytotoxic, single point] | –

2 entries picked at random from those above, as already listed:
Structure (SMILES) | Potency | activity change, negative = cytotoxic
CCCC(=O)Nc1ccc(C(=O)/C=C/c2ccc(SC)cc2)cc1 | inconclusive: 23.1 µM [cytotoxic, single point] | –
Cc1ccc2nc(C)c(C(=O)N/N=C/c3cccs3)cc2c1 | inconclusive: 32.6 µM [cytotoxic, single point] | –

Further compounds

Structure (SMILES) | Potency | activity change, negative = cytotoxic
CCOc1ccc(S(=O)(=O)N2CCC(C(=O)NCCc3ccccc3)CC2)cc1 | inconclusive: 0.231 µM [cytotoxic, full curve, poor fit] | –
COC(=O)c1ccc(C)cc1C1CN=NC12Cc1cc(C)ccc1C2=O (configuration not stated) | inconclusive: 25.9 µM [cytotoxic, single point] | –
CCO[C@H]1OC(C(=O)N2CCN(Cc3ccccc3)CC2)=C[C@@H](c2ccc(C(F)(F)F)cc2)[C@@H]1CCCO | inconclusive: 29.1 µM [cytotoxic, single point] | –
CCc1cc2ccc(C)cc2nc1SCC(=O)NC1CCCC1 | – | inconclusive: -1.04%
CC1CCN(C(=O)C(C)OC(=O)c2ccc(S(C)(=O)=O)c([N+](=O)[O-])c2)CC1 (configuration not stated) | inconclusive: 23.1 µM [cytotoxic, single point] | –
COc1ccc(-n2nnnc2SCC(=O)NC2CCCC2)cc1OC | – | inactive: 13.3%
CCOc1ccccc1C1CC(=O)Nc2cc(C)c(C)cc21 (configuration not stated) | inconclusive: 18.4 µM [cytotoxic, partial curve, poor fit] | –
CCCCCCCCN1C(=O)[C@H](CC(=O)NCc2cccc(C(F)(F)F)c2)C[C@@]2(C(=O)OCC)CCCC=C12 | inconclusive: 25.9 µM [cytotoxic, single point] | –
Cc1ccc(NC(=O)/C=C/c2cccs2)c([N+](=O)[O-])c1 | inconclusive: 11.6 µM [cytotoxic, partial curve, poor fit] | –
CCOC(=O)c1c(C)oc2nc(C)nc(NCC3CCN(Cc4cccc(Cl)c4)CC3)c12 | – | inactive: 1.29%
CC(C)[C@H](NC(=O)c1cccc(S(=O)(=O)N2CCOCC2)c1)C(=O)Nc1nc2ccccc2s1 | inconclusive: 10.3 µM [cytotoxic, partial curve, poor fit] | –
Cc1ccc(-c2csc3nnc(SCC(=O)N4CCN(Cc5ccccc5)CC4)n23)cc1 | – | inactive: -2.34%
OC(c1ccc2ccccc2c1)c1ncc(-c2cccc3ccccc23)[nH]1 (configuration not stated) | inconclusive: 20.6 µM [cytotoxic, single point] | –
COc1ccc2c(c1OC)C(=O)N(c1cccc(C)c1)C2 | – | inactive: -19.6%
COc1cccc(N2CCN(C(=O)c3ccc(CS(=O)c4ccc(Cl)cc4)o3)CC2)c1 (configuration not stated) | active: 8.2 µM | –
Cc1c(Cc2ccccc2)c(=O)n2c([nH]c3ccccc32)c1C#N | inconclusive: 29.1 µM [cytotoxic, single point] | –
Cn1c(NC(=O)c2ccccc2NC(=O)C(C)(C)C)nc2ccccc21 | inconclusive: 20.6 µM [cytotoxic, single point] | –
COc1ccc(C)cc1S(=O)(=O)Nc1cccc(-c2ccc(N3CCCCCC3)nn2)c1 | inconclusive: 16.4 µM [cytotoxic, single point] | –
O=C(c1cc(-c2ccc(O)cc2)on1)N1CCN(c2ccccc2)CC1 | inconclusive: 16.4 µM [cytotoxic, partial curve, poor fit] | –
CCCC(O)(c1ccc(Br)cc1)C(CN1CCOCC1)c1ccc(Cl)cc1 (configuration not stated) | inconclusive: 29.1 µM [cytotoxic, single point] | –
Cc1ccc(CN2CCSc3ccc(C(=O)NCC4CCCO4)cc32)cc1 (configuration not stated) | inconclusive: 20.6 µM [cytotoxic, single point] | –
